Laboratory results from patent US10501780B2, “Compositions for in situ nucleic acid analysis” (APPLIED BIOSYSTEMS, LLC, priority 2007, dated 2019).
Structures can show the parent of a compound that is named as a salt. For some of these results: At least one structure is not confirmed: it was looked up by name or label, or the drawing left a doubt. Some results were stated once for a whole list of compounds, not compound by compound. Starred links: 1 amine or outer side, 2 acyl side, 3 side chain; linkers in the order of their positions; H or OH if unused. Residues, ends and D or L forms follow the SMILES beside them. CO = O=C([*:1])[*:2]

Chains of the proteins cited; added tags and fusions are not shown. Residues count along the entry.
UniProt P06873, 106-384: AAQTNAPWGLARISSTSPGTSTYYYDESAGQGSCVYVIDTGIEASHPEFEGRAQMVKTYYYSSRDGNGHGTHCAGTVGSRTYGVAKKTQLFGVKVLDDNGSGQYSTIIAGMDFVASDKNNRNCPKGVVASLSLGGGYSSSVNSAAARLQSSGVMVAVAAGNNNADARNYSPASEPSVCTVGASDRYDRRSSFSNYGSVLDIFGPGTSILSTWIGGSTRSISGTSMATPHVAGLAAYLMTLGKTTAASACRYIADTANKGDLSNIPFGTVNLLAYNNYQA
UniProt P19821, whole entry: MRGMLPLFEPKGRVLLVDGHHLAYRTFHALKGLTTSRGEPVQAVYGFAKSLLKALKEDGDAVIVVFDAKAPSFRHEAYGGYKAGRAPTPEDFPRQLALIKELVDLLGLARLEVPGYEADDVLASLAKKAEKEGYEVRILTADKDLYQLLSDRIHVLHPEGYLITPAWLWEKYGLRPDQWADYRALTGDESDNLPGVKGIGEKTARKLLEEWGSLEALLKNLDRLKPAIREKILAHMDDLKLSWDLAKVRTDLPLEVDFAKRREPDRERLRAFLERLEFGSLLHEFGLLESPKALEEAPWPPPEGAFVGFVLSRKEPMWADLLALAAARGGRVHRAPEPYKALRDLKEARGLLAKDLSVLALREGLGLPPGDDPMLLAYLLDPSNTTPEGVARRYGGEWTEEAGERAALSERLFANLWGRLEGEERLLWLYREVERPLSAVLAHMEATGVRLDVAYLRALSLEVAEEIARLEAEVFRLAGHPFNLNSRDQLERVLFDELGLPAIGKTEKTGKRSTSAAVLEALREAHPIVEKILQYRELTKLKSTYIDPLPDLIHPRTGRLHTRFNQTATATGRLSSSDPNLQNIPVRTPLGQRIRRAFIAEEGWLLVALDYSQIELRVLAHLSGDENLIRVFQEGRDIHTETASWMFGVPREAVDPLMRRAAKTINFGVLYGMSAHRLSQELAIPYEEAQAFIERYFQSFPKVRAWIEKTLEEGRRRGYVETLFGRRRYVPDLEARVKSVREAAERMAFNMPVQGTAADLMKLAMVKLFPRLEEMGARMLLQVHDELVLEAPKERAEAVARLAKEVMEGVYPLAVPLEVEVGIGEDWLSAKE

Columns and labels:
[1] = molecular target: proteinase K (PK) (Parengyodontium album, UniProt P06873); format: biochemical; details: PK 600 ug/ml, increasing inhibitor, 3 min; RNaseALERT fluorescence at 520 nm
Protocol: PK (600 ug/ml) was mixed with increasing amounts of test inhibitor and allowed to react for 3 min at room temperature. RNase A was added and the mixture was incubated for 10 min. The RNase A was mixed with RNaseALERT™ substrate (AMBION®, Catalog No. AM1964) and incubated for 10 min. The fluorescence of the RNaseALERT™ substrate was measured at 520 nm.

[2] = molecular target: T1, AMPLITAQ GOLD® DNA polymerase (Thermus aquaticus, UniProt P19821); assay: Effect of surfactants on qPCR (TAQMAN Universal PCR Master Mix, PPIA assay); format: biochemical; details: concentration of added surfactant solution (0.03% final in PCR), 4 ng liver cDNA
T1 construct: purchased Applied Biosystems 4304437
Protocol: The effects of surfactants on PCR reactions were then studied. qPCR (20 uL) reactions with 4 ng Human Universal reference liver cDNA (Catalog No. 780622; […]®, La Jolla, Calif.) were performed by adding 2 uL of surfactant resuspended in 10 mM Tris pH 7.5 at concentrations of 0.0%, 0.01%, 0.03%, 0.1%, 0.3%, and 1%. qPCR reactions were carried out using the TAQMAN® Universal PCR Master Mix (Applied Biosystems Catalog No. 4304437), and qRT-PCR reactions were carried out using the TAQMAN® One-Step RT-PCR Master Mix (Applied Biosystems Catalog No. 4309169). TAQMAN® gene expression assays were used to determine expressions levels of genes PPIA (peptidylprolyl isomerase A (cyclophilin A)) and B2M (β-2-microglobulin).
ROX™ background fluorescence was not affected.

| Molecule | inhibition of PK at room temperature [1] | concentration with negative effects on PCR (increase in Ct) [2] |
| --- | --- | --- |
| CC(C)[C@H](NC(=O)[C@H](CCCNC(=N)N)NC(=O)N[C@@H](Cc1ccccc1)C(=O)O)C(=O)N[C@H](C=O)CCCNC(=N)N [antipain, antipain dihydrochloride] ({Phe-CO}-Arg-Val-Arg-aldehyde) | capable of inhibiting PK | – |
| dodecyl alcohol polyoxyethylene ether [THESIT™] | – | ≥ 0.3% |
| octylphenol ethoxylate having an average of 9.5 ethoxylate groups [TRITON X-100™] | – | ≥ 0.3% |
| octylphenolpoly(ethyleneglycolether) [NONIDET P-40™] | – | ≥ 0.3% |
